These are yes or no findings as the source states them, for the method shown. In cells and extracts the contact can be indirect. These calls come from enrichment with a bait or labelling near it, and not all partners need be listed.
Molecular target: Flag-tagged SAMHD1 (human) (UniProt Q9Y3Z3)
Test: affinity purification with mass spectrometry; Flag-SAMHD1 overexpressed in HEK293 cells for 48 h, IP lysis, Flag beads overnight at 4 °C, washed with PBS, gel bands digested for mass spectrometry

Chains of the proteins cited; added tags and fusions are not shown.
UniProt Q9Y3Z3: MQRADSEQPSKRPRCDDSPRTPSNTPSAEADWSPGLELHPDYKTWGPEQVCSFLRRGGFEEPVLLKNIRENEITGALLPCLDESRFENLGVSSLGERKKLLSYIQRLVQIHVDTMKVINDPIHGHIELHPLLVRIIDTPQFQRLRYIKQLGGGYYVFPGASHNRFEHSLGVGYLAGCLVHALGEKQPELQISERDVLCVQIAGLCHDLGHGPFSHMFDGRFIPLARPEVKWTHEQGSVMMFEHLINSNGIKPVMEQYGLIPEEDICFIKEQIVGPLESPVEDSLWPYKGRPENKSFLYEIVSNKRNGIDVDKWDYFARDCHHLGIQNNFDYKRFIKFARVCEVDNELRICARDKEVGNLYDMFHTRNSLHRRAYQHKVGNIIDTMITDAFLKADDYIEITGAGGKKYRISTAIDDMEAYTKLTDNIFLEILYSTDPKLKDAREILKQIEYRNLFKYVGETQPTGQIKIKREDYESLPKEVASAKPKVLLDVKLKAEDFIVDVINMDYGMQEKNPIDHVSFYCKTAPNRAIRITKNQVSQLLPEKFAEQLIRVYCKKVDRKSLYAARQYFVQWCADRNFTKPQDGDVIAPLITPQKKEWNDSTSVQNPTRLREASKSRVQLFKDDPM
UniProt Q93009: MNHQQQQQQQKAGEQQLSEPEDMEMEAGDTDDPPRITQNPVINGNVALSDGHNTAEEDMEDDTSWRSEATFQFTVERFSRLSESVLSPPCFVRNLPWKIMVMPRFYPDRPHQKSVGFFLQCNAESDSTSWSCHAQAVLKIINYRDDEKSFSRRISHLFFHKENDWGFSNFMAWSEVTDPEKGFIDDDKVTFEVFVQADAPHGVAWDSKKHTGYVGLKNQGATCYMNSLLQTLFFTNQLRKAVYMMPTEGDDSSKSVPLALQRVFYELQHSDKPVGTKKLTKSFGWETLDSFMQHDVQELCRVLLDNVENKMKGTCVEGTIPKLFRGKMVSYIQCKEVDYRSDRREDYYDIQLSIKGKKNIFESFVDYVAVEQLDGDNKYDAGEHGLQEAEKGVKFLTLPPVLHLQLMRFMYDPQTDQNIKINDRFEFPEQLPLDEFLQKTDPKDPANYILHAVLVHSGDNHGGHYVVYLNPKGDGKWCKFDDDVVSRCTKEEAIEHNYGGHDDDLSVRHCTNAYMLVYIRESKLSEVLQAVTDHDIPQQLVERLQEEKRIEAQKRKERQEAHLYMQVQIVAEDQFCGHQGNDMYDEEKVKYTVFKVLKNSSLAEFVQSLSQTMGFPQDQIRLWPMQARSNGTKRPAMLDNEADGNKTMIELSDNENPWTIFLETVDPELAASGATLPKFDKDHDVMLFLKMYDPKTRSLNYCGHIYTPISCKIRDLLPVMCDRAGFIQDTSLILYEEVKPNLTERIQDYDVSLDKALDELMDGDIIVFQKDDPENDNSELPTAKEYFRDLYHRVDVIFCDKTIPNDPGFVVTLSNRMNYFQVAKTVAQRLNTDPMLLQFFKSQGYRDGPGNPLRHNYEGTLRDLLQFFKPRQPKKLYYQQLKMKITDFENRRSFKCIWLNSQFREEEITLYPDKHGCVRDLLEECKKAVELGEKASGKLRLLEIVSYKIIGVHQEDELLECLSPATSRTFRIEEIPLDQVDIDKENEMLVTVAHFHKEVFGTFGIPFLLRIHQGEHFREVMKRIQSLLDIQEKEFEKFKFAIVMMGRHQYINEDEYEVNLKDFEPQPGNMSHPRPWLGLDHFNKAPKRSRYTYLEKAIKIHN

binding: binds
Substance: USP7 (from UniProt Q93009 1-1102) (enzyme)

Reference: PMC10238270
